PubChem BioAssay AID1259283 – Sanger Institute | 2017

- Aim: 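Kinases needed for HT115 growth and partners for drug synergy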 (primary screen)
- Cells: HT115 colorectal cancer cells
- Reagents: siRNA pool against human genes
- Challenge: anchor drug given one day after siRNA: BYL719 at 1 µM, cetuximab at 5 µg/ml, trametinib at 10 nM, or DMSO vehicle alone
- Measurement: 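Per-drug synergy scores plus replicate-mean viability relative to non-targeting pool #2 wells, also expressed as a robust z-score based on control wells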
- Reading the numbers: robust z-score, knock-down alone: higher = more viable cells after knock-down
- Rule for the call: 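a gene counts as essential when its robust z-score with knock-down alone is below -3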
- Calls: active = essential (z below -3, no drug); inactive = no change without drug
The deposit covers 794 reagents; shown is a random part of them. 14 of all reagents (1.8%) were called active. 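Calls reflect only viability loss without drug; drug synergy does not enter the call.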 A number with no mark means an inactive call. Not all columns of the deposit are shown. Not given: the amount of reagent, the time to read-out.

For PRKACG, how do the results read?
robust z-score, knock-down alone: 0.656

What is on record for KALRN?
robust z-score, knock-down alone: -0.545

With SGK1, what was measured?
robust z-score, knock-down alone: 0.495

With DAPK2, what was measured?
robust z-score, knock-down alone: 0.62

For MINK1, what was measured?
robust z-score, knock-down alone: 0.304

With TK2, what was measured?
robust z-score, knock-down alone: 0.789

How did the screen score MECOM?
robust z-score, knock-down alone: 0.789

For BMAL1, what was measured?
robust z-score, knock-down alone: 0.00517

With SLK, how do the results read?
robust z-score, knock-down alone: 0.789

How did the screen score PIP5KL1?
robust z-score, knock-down alone: 0.265

With MAP4K2, what does the deposit list?
robust z-score, knock-down alone: -0.375

With PIK3R4, what was measured?
robust z-score, knock-down alone: -1.04

2 of these entries in another layout:
gene | robust z-score, knock-down alone
SLK | 0.789
PIP5KL1 | 0.265
